Values quoted from earlier work in US20060240095A1, “Pharmaceutical composition comprising a combination of metformin and a statin” (priority 2003, published 2006).

Settings: oral administration with food; cited from earlier work

CC(C)c1c(C(=O)Nc2ccccc2)c(-c2ccccc2)c(-c2ccc(F)cc2)n1CC[C@@H](O)C[C@@H](O)CC(=O)O [Atorvastatin]
effect of food on absorption: decreases the rate and extent of drug absorption
